Data: paper PMC4650537
These are yes or no findings as the source states them, for the method shown. Binding seen in cells or lysates may run through a third protein. Some binding calls cover weakened binding; strength is not graded here.

By UniProt entry, the sequences of proteins in these tests, tags left out.
UniProt Q14790: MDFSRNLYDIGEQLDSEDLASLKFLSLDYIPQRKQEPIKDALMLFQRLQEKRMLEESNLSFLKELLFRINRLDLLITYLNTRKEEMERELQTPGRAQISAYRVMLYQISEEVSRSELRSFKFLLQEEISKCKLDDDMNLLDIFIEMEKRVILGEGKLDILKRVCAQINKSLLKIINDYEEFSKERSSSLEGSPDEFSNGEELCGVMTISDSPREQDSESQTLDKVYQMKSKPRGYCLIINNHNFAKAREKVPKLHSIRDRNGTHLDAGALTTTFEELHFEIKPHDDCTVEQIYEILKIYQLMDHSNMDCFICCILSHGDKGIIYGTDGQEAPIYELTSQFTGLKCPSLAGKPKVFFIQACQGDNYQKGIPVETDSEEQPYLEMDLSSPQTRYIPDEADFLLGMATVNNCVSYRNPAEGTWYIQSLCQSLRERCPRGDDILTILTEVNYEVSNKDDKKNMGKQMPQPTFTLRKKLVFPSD
UniProt Q13546: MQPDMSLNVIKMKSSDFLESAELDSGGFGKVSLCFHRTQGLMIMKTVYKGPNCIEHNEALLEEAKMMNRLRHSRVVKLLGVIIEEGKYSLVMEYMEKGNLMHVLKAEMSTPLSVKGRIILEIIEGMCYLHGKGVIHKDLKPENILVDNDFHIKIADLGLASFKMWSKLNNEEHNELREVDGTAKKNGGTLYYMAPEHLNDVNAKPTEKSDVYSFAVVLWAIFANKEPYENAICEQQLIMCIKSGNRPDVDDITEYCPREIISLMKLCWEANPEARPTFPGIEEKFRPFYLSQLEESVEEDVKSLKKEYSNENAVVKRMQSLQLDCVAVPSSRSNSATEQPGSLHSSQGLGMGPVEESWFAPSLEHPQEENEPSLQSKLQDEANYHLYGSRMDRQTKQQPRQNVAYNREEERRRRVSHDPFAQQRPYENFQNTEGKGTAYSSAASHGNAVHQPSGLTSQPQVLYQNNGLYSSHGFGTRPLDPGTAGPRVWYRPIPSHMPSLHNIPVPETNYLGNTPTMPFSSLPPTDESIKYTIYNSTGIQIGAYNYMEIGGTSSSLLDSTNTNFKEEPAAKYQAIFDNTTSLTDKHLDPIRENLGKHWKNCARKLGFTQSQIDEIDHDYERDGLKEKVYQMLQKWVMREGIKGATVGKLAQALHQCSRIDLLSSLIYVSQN
UniProt Q13158: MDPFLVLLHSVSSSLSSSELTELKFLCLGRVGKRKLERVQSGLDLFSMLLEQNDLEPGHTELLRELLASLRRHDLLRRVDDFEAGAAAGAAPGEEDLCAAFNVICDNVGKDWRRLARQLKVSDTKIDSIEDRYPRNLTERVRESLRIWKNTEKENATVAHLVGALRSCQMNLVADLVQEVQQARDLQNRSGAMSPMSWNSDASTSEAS

Key:
[1] = target: T1, caspase-3 (human (endogenous in HCT116)) (UniProt P42574); assay: co-IP; IP with caspase-3 antibody (IP-Cas-3), cells treated with DMSO or 5-FU (50 μg/ml) in the presence of z-VAD (20 μM)
T1 sequence: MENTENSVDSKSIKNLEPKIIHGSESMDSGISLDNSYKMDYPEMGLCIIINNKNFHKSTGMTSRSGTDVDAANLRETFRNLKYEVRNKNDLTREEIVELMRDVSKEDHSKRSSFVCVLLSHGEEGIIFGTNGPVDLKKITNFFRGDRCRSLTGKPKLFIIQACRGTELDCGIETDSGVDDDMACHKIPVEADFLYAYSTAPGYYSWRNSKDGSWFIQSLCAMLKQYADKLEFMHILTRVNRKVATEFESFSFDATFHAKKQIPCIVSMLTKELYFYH

[2] = target: T1, caspase-3 (human (endogenous in HCT116)); assay: co-IP; IP with caspase-3 antibody (IP-Cas-3) from lysates of HCT116 WT or C3KO cells treated with DMSO or 5-FU (50 μg/ml) for 24 h, without z-VAD

pro-caspase-8 (from UniProt Q14790 1-479)
binding [1]: no binding (condition: with z-VAD (20 μM))

receptor (TNFRSF)-interacting serine-threonine kinase 1 (from UniProt Q13546 1-671)
binding [1]: no binding (condition: with z-VAD (20 μM)) | binding [2]: binds

Fas (TNFRSF6)-associated via death domain (from UniProt Q13158 1-208)
binding [1]: no binding (condition: with z-VAD (20 μM)) | binding [2]: binds
